Publication PMC6558801

Target: EGFR truncate with the intracellular tyrosine kinase domain
Assay: co-IP; different truncates of EGFR co-expressed with PLEK2 in transfected cells (cell line and antibody not stated)

B1: Flag-tagged PLEK2 (pleckstrin-2), overexpressed in 293T cells (protein, UniProt Q9NYT0 1-353)
chain: MEDGVLKEGFLVKRGHIVHNWKARWFILRQNTLVYYKLEGGRRVTPPKGRILLDGCTITCPCLEYENRPLLIKLKTQTSTEYFLEACSREERDAWAFEITGAIHAGQPGKVQQLHSLRNSFKLPPHISLHRIVDKMHDSNTGIRSSPNMEQGSTYKKTFLGSSLVDWLISNSFTASRLEAVTLASMLMEENFLRPVGVRSMGAIRSGDLAEQFLDDSTALYTFAESYKKKISPKEEISLSTVELSGTVVKQGYLAKQGHKRKNWKVRRFVLRKDPAFLHYYDPSKEENRPVGGFSLRGSLVSALEDNGVPTGVKGNVQGNLFKVITKDDTHYYIQASSKAERAEWIEAIKKLT
B1 was tested, and the binding was “binds”.

Results are given in words; binding and its absence hold for the method and conditions named. Binding seen in cells or lysates may run through a third protein. A result given as binding can be weak or reduced; the word gives no strength. Sequences can lack the tags named with a protein.
